Measurements as given in patent US20240425611A1.
Numbering of substitutions follows the chain as printed. Results are given in words; binding and its absence hold for the method and conditions named. Some results given as binding are weak or reduced against the parent protein; the word gives no strength.

By UniProt entry, the sequences of proteins in these tests, tags left out. Residues count along the entry.
UniProt Q9NYJ7, residues 27-618: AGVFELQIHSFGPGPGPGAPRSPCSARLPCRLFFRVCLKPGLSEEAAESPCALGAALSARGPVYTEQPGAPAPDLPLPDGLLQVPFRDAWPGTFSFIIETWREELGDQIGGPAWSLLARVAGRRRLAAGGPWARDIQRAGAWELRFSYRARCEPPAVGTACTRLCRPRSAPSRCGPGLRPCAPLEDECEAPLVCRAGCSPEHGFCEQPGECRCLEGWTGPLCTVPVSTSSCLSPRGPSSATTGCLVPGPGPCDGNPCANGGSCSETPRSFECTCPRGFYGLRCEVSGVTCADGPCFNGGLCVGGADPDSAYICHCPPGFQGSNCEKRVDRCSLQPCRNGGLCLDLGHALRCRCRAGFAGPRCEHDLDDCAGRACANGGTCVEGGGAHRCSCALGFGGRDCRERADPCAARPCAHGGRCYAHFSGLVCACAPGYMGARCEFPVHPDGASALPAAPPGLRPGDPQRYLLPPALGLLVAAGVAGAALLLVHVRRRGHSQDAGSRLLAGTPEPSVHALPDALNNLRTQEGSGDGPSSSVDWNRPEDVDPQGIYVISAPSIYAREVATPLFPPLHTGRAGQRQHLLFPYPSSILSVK

B1: DLL3.3 (antibody, V domains shown)
VH: QVQLVQSGAEVKKPGASVKVSCKASGYTFTDYFMNWVRQAPGQGLEWMGVINPYNDITIYNQKFQGRVTMTVDRSTSTVYMELSSLRSEDTAVYYCAREGVLYDGYYEGAYWGQGTLVTVSS
VL: DIQLTQSPSFLSASVGDRVTITCKASQNVGIAVAWYQQKPGKAPKLLIYAASNRYTGVPSRFSGSGSGTEFTLTISSLQPEDFATYYCQQYSTYPYTFGQGTKLEIK
B2: DLL3.2 (antibody, V domains shown)
VH: QVQLVQSGAEVKKPGASVKVSCKATDYIFSNYYIEWVRQAPGQGLEWMGEILPGTGNTVYNEKFKDRVTMTVDTSTSTVYMELSSLRSEDTAVYYCARWGDYALFANWGQGTLVTVSS
VL: DIQMTQSPSTLSASVGDRVTITCKASQNVGTNVAWYQQKPGKAPKALIYSASYRYSGVPSRFSGSGSGTEFTLTISSLQPDDFATYYCQQYNSYPFTFGQGTKLEIK
B3: DLL3.4 (antibody, V domains shown)
VH: B2 VH
VL: B2 VL with T10F, A46P, A51T, D81E, S93N, F96L, Q100G, L104V

Target: human DLL3 over-expressed on CHO-K1 cells (human) (UniProt Q9NYJ7)
Assay: flow cytometry on CHO-K1 cells over-expressing human DLL3, PE anti-human IgG Fc

Row | binding | Binder
1 | binds | B1
2 | binds | B2
3 | binds | B3

Target: human DLL3 over-expressed on CHO-K1 cells (human) (UniProt Q9NYJ7)
Assay: flow cytometry on CHO-K1 cells over-expressing human DLL3 (FIG. 2A)

Row | binding | Binder
4 | binds | B1
5 | binds | B2
6 | binds | B3
